# Experimental data reported in patent US20170015979A1 (Instituto Tecnológico y de Estudios Superiores de Monterrey, priority 2015, published 2017).
# For part of these data: At least one structure is not confirmed: it was looked up by name or label, or the drawing left a doubt. Some results were stated once for a whole list of compounds, not compound by compound.
# Legend:
# [1] = test system: C. reinhardtii strain CC-124 (wt, mt-); test: Wild type C. reinhardtii tetracycline sensitivity; format: cell-based, Chlamydomonas reinhardtii; conditions: tetracycline 15, 25 and 50 μg/mL; 0.5, 1.0, 2.5 and 5.0×10^6 cells per plate; TAP agar; 10 days; 25 μmoles/sm^2
# [2] = test system: N. benthamiana leaf explants; test: Killing curve for tobacco leaf explants; format: cell-based
# Excerpt: FIG. 6. Doxycycline killing curve for N. benthamiana leaf explants.
# [3] = test system: Jalapeño hypocotyl, epicotyl and shoot tip tissues; test: Sensitivity of Jalapeño explants; format: cell-based; conditions: initially evaluated after 15 days
# Pichia pastoris = test: Yeast sensitivity on YPGE agar; format: cell-based; conditions: up to 1000 μg/mL, 2 days of incubation
# Experimental: Example 4. […] From a single overnight grown colony of each yeast strain, 25 mL of yeast extract-peptone-dextrose (YPD) broth were inoculated and grown for 16 hours at 30° C. and 150 rpm.
# S. cerevisiae = conditions: cited from earlier work
# human HeLa cells = conditions: cited from earlier work
Compound,growth of wild type cells [1],"shoot induction ([2]; 200 μg/mL, after 7 days)","shoot induction ([2]; other tested concentrations (5, 10, 50, 100, 150, 200 μg/mL), after 30 days)","concentration up to which survival (limited growth, principally callus formation) could be discerned [3]",growth at the assayed concentrations (Pichia pastoris),tetracycline concentrations to which cells are sensitive (S. cerevisiae),tetracycline concentrations to which cells are sensitive (human HeLa cells),"shoot induction ([2]; 15 μg/mL, after 33 days)","shoot induction ([2]; 25 μg/mL, after 33 days)","shoot induction ([2]; other tested concentrations (5, 10, 50, 100, 150, 200 μg/mL), after 33 days)"
"CN(C)[C@@H]1C(O)=C(C(N)=O)C(=O)[C@@]2(O)C(O)=C3C(=O)c4c(O)cccc4[C@@](C)(O)[C@H]3C[C@@H]12 [tetracycline, Tetracycline]",no growth,inhibited,not for the other tested concentrations,up to 100 μg/mL,unaffected,above 10 μg/mL,above 10 μg/mL,,,
C[C@H]1c2cccc(O)c2C(=O)C2=C(O)[C@]3(O)C(=O)C(C(N)=O)=C(O)[C@@H](N(C)C)[C@@H]3[C@@H](O)[C@@H]21 [doxycycline],,inhibited,,up to 100 μg/mL,,,,shoot induction was observed,shoot induction was observed,not for the other tested concentrations
